PubChem BioAssay AID1159584 | Peter MacCallum Cancer Centre, 2016
The whole screen tested about 18,000 reagents; shown is a part drawn at random. Reagents against one gene are numbered here. Further read-outs or replicates are left out here. Reagent sequences are not shown. Not given: the amount of reagent, the time to read-out.

Aim: 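Genes whose loss is lethal only together with E-cadherin loss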 (primary screen)
Cell system: human MCF10A breast epithelial cells, parental and CDH1-null
Reagents: siRNA against human genes
Read-out: 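ATP luminescence (CellTiter-Glo) viability per line relative to mean mock wells over all plates, and the ratio of CDH1-null to parental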
Direction: CDH1-null / parental viability ratio: higher = CDH1-null cells survive relatively better than parental

CDH1-null / parental viability ratio, by gene and reagent
GREM2: #1 0.97
PRDX3: #1 1.07
CALHM5: #1 0.99
IRF8: #1 1.23
DUSP5: #1 1.49
GADD45B: #1 1.04
ZNF772: #1 1.09
C8orf58: #1 1.05
SEC31A: #1 1.09
MROH5: #1 0.92
MEX3C: #1 1.02
CTSK: #1 1.18
MAML1: #1 0.92
GPR82: #1 0.83
C8orf44: #1 1.31
ACBD6: #1 1.22
CLIC2: #1 1.06
MYO18A: #1 1.4; #2 0.77
CGB5: #1 0.94
TMEM128: #1 0.88
OR51M1: #1 0.8
SART3: #1 1.22
KCNE1: #1 1.14
RHOG: #1 1.04
RBCK1: #1 1.01
THEMIS2: #1 1.01
SNX6: #1 1.32
CHST15: #1 1.13
CYP2B6: #1 0.96
FLVCR1: #1 1.07
PFDN6: #1 0.73
FAM135B: #1 0.93
HS2ST1: #1 1.01
DRC10: #1 0.53
SULT1A3: #1 0.98
SLC16A14: #1 0.93
TMCC2: #1 0.86
CTTN: #1 0.94
PPP6R3: #1 0.77
ICAM1: #1 0.78
ANXA9: #1 1.5
PSG9: #1 1.04
CCK: #1 1.22
PARP11: #1 1.03
PROKR2: #1 0.84
